Measurements taken from publication PMC10139083.
Results are given in words; binding and its absence hold for the method and conditions named. Binding seen in cells or lysates may run through a third protein. Here binding means that the protein was enriched with, or labelled near, the bait; the list need not be complete.

Chains of the proteins cited; added tags and fusions are not shown. Residues count along the entry.
UniProt P54760, residues 16-987: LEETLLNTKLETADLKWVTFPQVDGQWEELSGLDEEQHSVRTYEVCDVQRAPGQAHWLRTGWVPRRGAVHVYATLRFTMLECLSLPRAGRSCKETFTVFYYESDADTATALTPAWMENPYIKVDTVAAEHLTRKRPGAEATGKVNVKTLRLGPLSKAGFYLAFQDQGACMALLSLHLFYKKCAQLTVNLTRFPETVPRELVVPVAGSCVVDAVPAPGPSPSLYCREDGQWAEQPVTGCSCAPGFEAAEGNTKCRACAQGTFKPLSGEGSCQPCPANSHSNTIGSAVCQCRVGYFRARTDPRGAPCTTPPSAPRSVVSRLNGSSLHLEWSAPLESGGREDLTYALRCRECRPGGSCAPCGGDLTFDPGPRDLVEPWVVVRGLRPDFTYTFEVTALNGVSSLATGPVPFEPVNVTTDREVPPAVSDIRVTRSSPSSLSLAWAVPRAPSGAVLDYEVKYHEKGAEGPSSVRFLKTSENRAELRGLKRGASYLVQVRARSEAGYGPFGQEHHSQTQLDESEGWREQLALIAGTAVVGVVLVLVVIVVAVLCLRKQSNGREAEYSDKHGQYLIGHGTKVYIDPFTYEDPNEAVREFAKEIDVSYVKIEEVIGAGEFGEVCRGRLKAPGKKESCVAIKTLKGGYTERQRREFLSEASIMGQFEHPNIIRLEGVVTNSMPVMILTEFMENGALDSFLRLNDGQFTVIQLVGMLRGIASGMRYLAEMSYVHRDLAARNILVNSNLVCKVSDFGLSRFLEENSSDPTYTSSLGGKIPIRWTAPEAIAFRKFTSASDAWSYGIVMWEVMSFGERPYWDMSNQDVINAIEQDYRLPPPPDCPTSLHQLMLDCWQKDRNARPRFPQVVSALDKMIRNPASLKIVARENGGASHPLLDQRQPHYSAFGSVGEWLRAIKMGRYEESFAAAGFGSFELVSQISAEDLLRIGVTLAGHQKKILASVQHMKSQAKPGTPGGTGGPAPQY
UniProt P22314: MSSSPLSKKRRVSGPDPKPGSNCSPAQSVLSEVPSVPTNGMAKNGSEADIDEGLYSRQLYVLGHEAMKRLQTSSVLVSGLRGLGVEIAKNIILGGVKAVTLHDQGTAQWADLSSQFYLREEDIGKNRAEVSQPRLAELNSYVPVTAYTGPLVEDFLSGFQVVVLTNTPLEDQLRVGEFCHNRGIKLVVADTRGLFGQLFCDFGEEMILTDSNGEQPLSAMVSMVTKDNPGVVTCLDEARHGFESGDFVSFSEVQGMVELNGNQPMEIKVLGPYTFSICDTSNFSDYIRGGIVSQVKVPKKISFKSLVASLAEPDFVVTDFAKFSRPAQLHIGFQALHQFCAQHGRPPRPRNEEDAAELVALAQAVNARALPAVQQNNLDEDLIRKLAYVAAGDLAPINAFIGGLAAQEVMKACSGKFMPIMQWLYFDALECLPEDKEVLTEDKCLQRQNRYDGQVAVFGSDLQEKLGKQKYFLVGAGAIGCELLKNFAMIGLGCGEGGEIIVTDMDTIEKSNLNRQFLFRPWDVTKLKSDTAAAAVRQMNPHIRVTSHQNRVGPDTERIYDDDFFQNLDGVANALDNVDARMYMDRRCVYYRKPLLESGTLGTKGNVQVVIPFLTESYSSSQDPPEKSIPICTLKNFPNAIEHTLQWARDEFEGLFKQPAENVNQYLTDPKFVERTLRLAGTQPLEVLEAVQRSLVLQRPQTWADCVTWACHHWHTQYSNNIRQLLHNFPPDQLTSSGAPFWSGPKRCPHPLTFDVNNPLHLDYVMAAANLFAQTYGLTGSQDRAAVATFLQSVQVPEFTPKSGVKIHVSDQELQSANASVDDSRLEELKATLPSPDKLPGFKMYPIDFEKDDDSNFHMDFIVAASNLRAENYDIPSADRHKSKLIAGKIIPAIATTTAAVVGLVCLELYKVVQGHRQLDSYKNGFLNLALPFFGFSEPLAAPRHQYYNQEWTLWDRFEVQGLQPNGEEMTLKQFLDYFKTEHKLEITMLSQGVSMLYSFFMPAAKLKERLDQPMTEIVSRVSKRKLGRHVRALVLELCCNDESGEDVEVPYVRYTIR
UniProt P61088: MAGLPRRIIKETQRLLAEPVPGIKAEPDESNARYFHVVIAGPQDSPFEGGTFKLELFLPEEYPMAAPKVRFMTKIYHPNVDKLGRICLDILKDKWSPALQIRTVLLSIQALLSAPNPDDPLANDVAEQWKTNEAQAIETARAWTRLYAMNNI

Biological target: EphB4 (Eph receptor B4), native protein of MSTO211H cells (human (endogenous in MSTO211H)) (UniProt P54760)
Experiment: affinity purification with mass spectrometry; EphB4 immunoprecipitated with anti-EphB4 antibody-coated prot A/G beads from MSTO211H total cell lysates after reversible cross-linking (SPDP); cells cultured with or without an IGF-II neutralizing antibody; label-free LC-Ms/Ms

Row | binding | Substance
1 | binds | UBA1 (E1 ubiquitin ligase), native protein of MSTO211H cells (from UniProt P22314 1-1058) (enzyme)
2 | binds | Cdc48/p97 (Valosin-containing protein, VCP), native protein of MSTO211H cells (from UniProt P55072 1-806) (enzyme)
3 | binds | UBE2N (E2 ubiquitin ligase), native protein of MSTO211H cells (from UniProt P61088 1-152) (enzyme)
